Measured values: publication PMC10904736, “A c-di-GMP signaling module controls responses to iron in Pseudomonas aeruginosa” (Nature Communications, 2024)
Results are given in words; binding and its absence hold for the method and conditions named. Tags and fused reporters may be left off the sequences shown.

Target: IsmP fragment with a defect in the PAS domain, bacterial two-hybrid fusion (Pseudomonas aeruginosa PAO1)
Assay: two-hybrid; bacterial two-hybrid (BTH kit, EUROMEDEX): pKT25 and pUT18C plasmids in E. coli BTH101, LB agar with 1 mM IPTG and X-Gal, 30 °C, 24 h; blue colonies, β-galactosidase activity in Miller units

B1: ImcA (iron modulator of c-di-GMP A, PA1851), full length, bacterial two-hybrid fusion (protein, UniProt Q9I2P4 1-401)
chain: MLARDSLVQAGLPDNPYARQLRNGFRWLRFEKELENEFREFLSWNSLMQRRAAIGVAFLIWALFIVADWMMVDIRLHPSLFEQLLGVRLGMIGLLLVVWPAAFLPSLRKVGDAIAPYCLLLINLAVLACDVLFEWHGVPRFTQLGATLGILAVFFPLGLAFWACVRLALLCLALNLAVFLLFGGEENLRTNLLNTLYNGLVVLICSFALYLQDYAQREQFLGRRLLGMMAEQDSLTGLVNRRYYELLAQRALEQGAREEKGVALILVDVDDFKAYNDHYGHPAGDAALRQLGVVLRQGARRPLDIAARLGGEEFAVLLYDSEEGNTLAIAERLRQAVEALGIEHLGSSAGPCLTISLGVAYSTSGMGLDALYREADRALYEAKDAGRNAVRVAFRQHDRLE
**Q.** B1 was tested. Which binding did it give?
**A.** no binding
